Reference: the supplement of paper PMC10849652
The list shows a part of the results.

By UniProt entry, the sequences of proteins in these tests, tags left out. Where a name states a change or a piece, a line headed by the entry shows the natural chain unless it says otherwise.
UniProt Q9Y6J0: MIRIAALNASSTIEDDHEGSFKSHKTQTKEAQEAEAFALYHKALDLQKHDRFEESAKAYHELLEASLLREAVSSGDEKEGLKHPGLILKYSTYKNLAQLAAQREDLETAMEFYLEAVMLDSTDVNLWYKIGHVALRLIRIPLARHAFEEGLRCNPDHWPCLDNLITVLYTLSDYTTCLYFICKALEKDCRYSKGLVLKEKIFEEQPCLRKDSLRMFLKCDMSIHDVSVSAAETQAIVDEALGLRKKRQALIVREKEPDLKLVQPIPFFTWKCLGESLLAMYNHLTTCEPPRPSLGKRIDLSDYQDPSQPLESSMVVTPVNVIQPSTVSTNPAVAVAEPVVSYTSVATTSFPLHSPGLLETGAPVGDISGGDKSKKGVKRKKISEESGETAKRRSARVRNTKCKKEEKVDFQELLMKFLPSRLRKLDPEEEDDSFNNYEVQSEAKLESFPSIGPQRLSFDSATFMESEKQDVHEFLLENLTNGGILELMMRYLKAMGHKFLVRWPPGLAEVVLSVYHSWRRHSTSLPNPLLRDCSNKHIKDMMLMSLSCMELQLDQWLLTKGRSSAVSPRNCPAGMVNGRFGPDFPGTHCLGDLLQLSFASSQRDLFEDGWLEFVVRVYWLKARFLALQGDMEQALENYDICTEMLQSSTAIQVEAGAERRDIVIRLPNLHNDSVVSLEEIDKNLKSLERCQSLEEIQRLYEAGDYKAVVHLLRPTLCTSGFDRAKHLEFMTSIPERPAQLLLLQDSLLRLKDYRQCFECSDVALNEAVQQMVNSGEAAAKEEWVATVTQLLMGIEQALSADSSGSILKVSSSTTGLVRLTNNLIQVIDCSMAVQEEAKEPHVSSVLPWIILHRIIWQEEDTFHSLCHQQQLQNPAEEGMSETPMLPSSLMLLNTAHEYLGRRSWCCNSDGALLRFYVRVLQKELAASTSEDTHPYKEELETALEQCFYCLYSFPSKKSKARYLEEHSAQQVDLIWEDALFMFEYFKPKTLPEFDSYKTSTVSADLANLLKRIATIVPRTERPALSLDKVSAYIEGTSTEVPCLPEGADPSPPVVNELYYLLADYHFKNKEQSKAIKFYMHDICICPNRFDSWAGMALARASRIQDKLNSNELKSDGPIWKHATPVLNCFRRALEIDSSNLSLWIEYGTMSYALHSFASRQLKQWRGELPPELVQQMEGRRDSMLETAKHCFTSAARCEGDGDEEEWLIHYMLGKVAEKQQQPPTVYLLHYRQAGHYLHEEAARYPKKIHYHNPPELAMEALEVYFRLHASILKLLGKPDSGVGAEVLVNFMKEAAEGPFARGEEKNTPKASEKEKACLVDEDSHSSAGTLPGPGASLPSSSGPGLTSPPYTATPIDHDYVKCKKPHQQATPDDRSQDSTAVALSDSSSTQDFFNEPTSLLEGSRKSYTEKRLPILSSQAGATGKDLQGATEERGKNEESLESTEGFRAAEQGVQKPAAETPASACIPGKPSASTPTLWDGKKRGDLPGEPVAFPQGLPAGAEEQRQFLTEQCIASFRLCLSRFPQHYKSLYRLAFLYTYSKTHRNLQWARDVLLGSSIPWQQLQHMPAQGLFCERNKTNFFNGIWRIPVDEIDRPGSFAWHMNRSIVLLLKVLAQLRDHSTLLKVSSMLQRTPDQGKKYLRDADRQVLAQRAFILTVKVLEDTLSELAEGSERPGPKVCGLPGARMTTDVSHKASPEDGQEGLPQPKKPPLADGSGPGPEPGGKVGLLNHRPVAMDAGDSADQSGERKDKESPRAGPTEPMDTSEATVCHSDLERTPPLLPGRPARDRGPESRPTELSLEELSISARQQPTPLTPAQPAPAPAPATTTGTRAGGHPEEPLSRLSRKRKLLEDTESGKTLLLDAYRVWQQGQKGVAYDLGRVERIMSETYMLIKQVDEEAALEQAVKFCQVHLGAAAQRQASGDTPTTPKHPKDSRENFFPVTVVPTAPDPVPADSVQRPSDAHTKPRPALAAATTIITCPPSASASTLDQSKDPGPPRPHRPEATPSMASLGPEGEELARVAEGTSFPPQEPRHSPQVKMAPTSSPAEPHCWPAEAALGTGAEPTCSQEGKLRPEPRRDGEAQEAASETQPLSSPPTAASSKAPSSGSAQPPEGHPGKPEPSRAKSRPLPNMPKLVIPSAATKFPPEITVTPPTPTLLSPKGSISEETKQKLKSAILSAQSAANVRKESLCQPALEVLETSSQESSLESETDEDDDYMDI
UniProt Q96HA4: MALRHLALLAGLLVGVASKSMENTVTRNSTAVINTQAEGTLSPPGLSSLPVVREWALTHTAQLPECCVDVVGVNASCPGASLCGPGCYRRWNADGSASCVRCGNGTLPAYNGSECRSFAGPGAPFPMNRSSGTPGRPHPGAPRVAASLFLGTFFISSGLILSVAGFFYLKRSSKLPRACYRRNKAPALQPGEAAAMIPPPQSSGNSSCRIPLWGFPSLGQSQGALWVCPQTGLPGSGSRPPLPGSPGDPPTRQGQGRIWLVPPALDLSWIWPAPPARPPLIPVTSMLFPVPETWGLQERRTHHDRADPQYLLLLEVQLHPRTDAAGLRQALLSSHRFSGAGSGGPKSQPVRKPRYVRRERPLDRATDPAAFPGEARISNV
UniProt Q05682: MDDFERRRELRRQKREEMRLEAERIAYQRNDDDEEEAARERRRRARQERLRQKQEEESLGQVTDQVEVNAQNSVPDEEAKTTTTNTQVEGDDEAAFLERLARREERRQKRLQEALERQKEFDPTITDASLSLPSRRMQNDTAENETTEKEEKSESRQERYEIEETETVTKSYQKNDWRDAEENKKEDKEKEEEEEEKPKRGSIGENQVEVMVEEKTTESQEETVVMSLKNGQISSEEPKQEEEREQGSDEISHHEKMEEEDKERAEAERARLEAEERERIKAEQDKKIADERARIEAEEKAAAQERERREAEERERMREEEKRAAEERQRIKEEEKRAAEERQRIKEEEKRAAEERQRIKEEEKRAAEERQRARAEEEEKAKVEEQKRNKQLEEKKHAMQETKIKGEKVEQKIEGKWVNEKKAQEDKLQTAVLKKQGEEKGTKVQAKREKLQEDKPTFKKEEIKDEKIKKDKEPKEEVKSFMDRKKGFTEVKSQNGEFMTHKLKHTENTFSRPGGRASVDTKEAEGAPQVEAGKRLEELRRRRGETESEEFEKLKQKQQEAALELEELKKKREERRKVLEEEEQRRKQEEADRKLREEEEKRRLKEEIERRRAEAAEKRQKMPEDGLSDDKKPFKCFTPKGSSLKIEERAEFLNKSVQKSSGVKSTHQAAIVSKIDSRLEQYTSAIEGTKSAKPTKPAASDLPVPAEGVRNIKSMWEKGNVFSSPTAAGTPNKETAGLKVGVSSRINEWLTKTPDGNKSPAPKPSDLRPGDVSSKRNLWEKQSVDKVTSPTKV
UniProt P27482, whole entry, looked up: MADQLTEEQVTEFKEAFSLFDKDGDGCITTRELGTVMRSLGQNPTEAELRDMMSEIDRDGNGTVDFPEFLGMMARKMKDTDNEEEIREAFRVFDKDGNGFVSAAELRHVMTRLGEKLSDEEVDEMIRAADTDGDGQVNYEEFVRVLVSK
UniProt Q6UX52: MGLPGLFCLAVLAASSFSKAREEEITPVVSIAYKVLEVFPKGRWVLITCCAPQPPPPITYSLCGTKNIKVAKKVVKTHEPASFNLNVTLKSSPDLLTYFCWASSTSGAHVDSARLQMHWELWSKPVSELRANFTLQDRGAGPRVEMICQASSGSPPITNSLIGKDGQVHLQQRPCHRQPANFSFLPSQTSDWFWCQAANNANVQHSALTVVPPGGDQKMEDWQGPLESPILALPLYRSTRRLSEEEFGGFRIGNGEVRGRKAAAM
UniProt P07451: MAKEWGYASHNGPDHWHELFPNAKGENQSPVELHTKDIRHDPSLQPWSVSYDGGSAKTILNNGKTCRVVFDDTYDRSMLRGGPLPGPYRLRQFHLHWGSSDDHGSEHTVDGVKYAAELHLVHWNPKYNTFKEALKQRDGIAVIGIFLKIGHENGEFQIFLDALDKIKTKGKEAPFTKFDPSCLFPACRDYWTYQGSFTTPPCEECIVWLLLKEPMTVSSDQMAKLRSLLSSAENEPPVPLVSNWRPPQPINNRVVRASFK
UniProt Q9H257: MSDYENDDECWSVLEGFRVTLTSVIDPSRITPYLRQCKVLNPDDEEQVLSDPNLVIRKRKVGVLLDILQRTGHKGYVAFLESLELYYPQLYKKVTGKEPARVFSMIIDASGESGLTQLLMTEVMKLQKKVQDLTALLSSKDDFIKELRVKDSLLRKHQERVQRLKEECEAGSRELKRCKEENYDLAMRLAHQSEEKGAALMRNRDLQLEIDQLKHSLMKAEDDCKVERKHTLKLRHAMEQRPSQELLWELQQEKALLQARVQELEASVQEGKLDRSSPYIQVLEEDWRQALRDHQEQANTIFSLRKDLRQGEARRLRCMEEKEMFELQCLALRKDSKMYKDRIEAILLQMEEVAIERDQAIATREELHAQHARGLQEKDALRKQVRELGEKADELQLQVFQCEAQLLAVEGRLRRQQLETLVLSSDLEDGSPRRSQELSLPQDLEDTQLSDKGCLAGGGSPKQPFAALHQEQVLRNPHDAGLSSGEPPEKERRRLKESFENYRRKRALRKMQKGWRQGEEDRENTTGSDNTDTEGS
UniProt Q9NSK7: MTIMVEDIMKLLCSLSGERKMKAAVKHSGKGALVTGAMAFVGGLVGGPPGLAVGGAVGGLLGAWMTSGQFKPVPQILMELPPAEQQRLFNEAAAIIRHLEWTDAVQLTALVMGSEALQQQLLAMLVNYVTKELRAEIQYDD
UniProt Q8TCD1: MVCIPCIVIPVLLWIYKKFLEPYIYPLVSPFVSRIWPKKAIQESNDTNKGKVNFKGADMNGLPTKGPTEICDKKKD
UniProt Q9BUW7: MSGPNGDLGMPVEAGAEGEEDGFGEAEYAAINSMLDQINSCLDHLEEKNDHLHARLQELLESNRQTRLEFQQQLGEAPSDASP
UniProt Q9UQM7, whole entry, looked up: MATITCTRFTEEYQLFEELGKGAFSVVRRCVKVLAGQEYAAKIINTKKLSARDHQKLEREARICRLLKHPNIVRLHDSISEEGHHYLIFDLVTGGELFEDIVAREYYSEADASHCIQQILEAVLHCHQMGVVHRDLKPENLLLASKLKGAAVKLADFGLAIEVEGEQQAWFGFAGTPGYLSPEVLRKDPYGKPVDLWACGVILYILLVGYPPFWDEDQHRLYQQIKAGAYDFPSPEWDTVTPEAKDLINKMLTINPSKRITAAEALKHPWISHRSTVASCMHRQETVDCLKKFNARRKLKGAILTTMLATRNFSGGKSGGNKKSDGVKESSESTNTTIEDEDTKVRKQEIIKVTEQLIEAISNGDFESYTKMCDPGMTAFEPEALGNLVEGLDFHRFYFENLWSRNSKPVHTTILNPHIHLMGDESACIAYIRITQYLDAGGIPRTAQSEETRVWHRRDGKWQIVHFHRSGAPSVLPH
UniProt Q9BSU1: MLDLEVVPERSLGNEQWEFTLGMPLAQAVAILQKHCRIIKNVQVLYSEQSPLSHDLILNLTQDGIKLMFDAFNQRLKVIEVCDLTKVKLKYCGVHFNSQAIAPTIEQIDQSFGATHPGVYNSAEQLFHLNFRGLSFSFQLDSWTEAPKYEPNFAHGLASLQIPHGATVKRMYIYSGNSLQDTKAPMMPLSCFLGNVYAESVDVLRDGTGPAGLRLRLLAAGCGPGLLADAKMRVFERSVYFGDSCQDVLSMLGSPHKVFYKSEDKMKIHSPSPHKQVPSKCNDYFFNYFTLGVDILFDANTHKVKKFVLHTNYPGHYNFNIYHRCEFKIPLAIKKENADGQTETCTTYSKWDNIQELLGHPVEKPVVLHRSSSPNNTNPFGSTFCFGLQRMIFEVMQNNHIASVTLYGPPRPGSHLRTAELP
UniProt Q13901: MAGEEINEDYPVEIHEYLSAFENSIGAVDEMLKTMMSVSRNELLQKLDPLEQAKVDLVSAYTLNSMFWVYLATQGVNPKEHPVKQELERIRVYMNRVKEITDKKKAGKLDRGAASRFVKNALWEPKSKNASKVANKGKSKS
UniProt Q9BSF8: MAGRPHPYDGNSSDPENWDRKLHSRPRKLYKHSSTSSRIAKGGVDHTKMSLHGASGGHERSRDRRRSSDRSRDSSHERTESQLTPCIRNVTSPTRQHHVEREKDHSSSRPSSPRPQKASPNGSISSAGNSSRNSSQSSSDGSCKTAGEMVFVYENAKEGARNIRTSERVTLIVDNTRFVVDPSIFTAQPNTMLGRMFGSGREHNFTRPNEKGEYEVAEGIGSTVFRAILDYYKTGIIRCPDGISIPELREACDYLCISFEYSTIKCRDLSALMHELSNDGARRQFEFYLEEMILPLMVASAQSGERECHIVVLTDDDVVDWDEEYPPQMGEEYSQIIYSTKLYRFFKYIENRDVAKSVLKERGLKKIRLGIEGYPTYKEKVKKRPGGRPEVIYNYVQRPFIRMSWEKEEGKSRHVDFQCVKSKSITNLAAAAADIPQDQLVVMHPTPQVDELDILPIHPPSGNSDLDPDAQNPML
UniProt P0DMB2: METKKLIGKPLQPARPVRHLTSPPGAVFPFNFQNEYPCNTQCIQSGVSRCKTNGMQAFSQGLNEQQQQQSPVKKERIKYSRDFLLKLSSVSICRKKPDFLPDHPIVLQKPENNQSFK

Assays:
Test in all cases: log2 fold change, soluble protein after heating vs DMSO (PISA); higher = thermal stabilisation; K562 cells, 10 uM, 30 min; active = over 0.2 and 3.5 SD of the protein, either way, in both replicates (recomputed)
saracatinib = compound: CN1CCN(CCOc2cc(OC3CCOCC3)c3c(Nc4c(Cl)ccc5c4OCO5)ncnc3c2)CC1 [saracatinib]
Summary of the method: (§1)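 K562 cells at 2×10^6 cells/mL were treated for 30 min with 10 μM compound, and aliquots were heated for 3 min over 48°C-58°C before pooling. Extraction used PBS with 0.5% NP-40 at 4°C, and soluble protein was the supernatant after 21,000xg for 90 min, measured by TMTpro 16plex LC-MS/MS with channel sums equalised. Thermal stability values, relative to control samples and from duplicates, are log2 fold changes.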

alvocidib = compound: CN1CC[C@H](c2c(O)cc(O)c3c(=O)cc(-c4ccccc4Cl)oc23)[C@H](O)C1 [alvocidib]
Summary of the method: as §1

Tubastatin A = compound: CN1CCc2c(c3ccccc3n2Cc2ccc(C(=O)NO)cc2)C1 [Tubastatin A]
Summary of the method: as §1

[1] = compound: CNc1nc(-c2ccc3c(N)n[nH]c3c2)cc(N2C[C@@H](C(=O)NC3CCCCC3)CC[C@H]2C)n1
Summary of the method: as §1

sotrastaurin = compound: CN1CCN(c2nc(C3=C(c4c[nH]c5ccccc45)C(=O)NC3=O)c3ccccc3n2)CC1 [sotrastaurin]
Summary of the method: as §1

[2] = compound: CNC(=O)C1=CC=CC=C1NC2=NC(=NC=C2Cl)NC3=C(C=C(C=C3)N4CCOCC4)OC
Summary of the method: as §1

defactinib = compound: CNC(=O)c1ccc(Nc2ncc(C(F)(F)F)c(NCc3nccnc3N(C)S(C)(=O)=O)n2)cc1 [defactinib]
Summary of the method: as §1

rucaparib = compound: CNCc1ccc(-c2[nH]c3cc(F)cc4c3c2CCNC4=O)cc1 [rucaparib]
Summary of the method: as §1

encorafenib = compound: COC(=O)N[C@@H](C)CNc1nccc(-c2cn(C(C)C)nc2-c2cc(Cl)cc(NS(C)(=O)=O)c2F)n1 [encorafenib]
Summary of the method: as §1

[3] = compound: COC(=O)[C@H](CCSC)NC(=O)C1=C(C=C(C=C1)NC[C@H](CS)N)C2=CC=CC=C2
Summary of the method: as §1

Measured: log2 fold change

C9 (UniProt P02748)
inactive: saracatinib 0.066 | alvocidib 0.133 | Tubastatin A 0.063 | [1] -0.008

C11orf24 (UniProt Q96F05)
inactive: sotrastaurin -0.027 | [2] -0.376

C11orf74 (UniProt Q86VG3)
inactive: sotrastaurin -0.071 | Tubastatin A 0.036 | [2] 0.137 | defactinib -0.162 | rucaparib -0.01 | encorafenib 0.046 | [3] 0.027

CABIN1 (UniProt Q9Y6J0)
inactive: [2] -0.006

C1orf43 (UniProt Q9BWL3)
inactive: sotrastaurin -0.041

C16orf87 (UniProt Q6PH81)
inactive: sotrastaurin 0.043 | defactinib -0.069 | rucaparib 0.055 | encorafenib 0.027 | [3] 0.062

C1orf159 isoform 4 (UniProt Q96HA4)
inactive: sotrastaurin 0.113 | alvocidib -0.287 | defactinib -0.008 | [3] 0.057

CALD1 (UniProt Q05682)
inactive: sotrastaurin 0.008 | alvocidib 0 | [2] -0.087

CALML3 (UniProt P27482)
inactive: saracatinib -0.128 | Tubastatin A -0.052 | rucaparib 0.079 | [1] 0.089 | encorafenib -0.043

C12orf60 (UniProt Q5U649)
inactive: Tubastatin A -0.101 | [2] 0.06

C17orf99 (UniProt Q6UX52)
inactive: [2] 0.035

CA2 (UniProt P00918)
inactive: saracatinib -0.128 | Tubastatin A -0.013 | [2] 0.002 | defactinib -0.002 | rucaparib -0.055 | [1] 0.103 | encorafenib 0.089 | [3] 0.038

CA3 (UniProt P07451)
inactive: sotrastaurin 0.015

CARD9 (UniProt Q9H257)
inactive: [2] 0.388

CARD6 (UniProt Q9BX69)
inactive: rucaparib 0.007 | encorafenib 0.07

C19orf12 (UniProt Q9NSK7)
inactive: Tubastatin A -0.141 | rucaparib -0.081 | encorafenib 0.078

C7orf26 (UniProt Q96N11)
inactive: sotrastaurin -0.111 | [2] 0.042 | defactinib -0.189 | [3] -0.031

C18orf32 (UniProt Q8TCD1)
inactive: sotrastaurin 0.087 | alvocidib 0.041 | Tubastatin A 0.005 | [2] 0.002 | defactinib -0.022 | rucaparib -0.015 | encorafenib -0.055 | [3] 0.065

CAPN1 (UniProt E9PLX0)
inactive: sotrastaurin 0 | [2] 0.394 | rucaparib 0.013 | encorafenib -0.167

3 neighbouring records from above, for reference:
CARD9 (UniProt Q9H257)
inactive: [2] 0.388

CARD6 (UniProt Q9BX69)
inactive: rucaparib 0.007 | encorafenib 0.07

C19orf12 (UniProt Q9NSK7)
inactive: Tubastatin A -0.141 | rucaparib -0.081 | encorafenib 0.078

Further results.

C9orf16 (UniProt Q9BUW7)
inactive: saracatinib 0.078 | [1] -0.063

BSN (UniProt Q9UPA5)
inactive: alvocidib -0.089 | defactinib -0.01 | [3] 0.061

CAMK2A isoform 2 (UniProt Q9UQM7)
inactive: saracatinib -0.043 | [1] 0.099

C16orf70 (UniProt Q9BSU1)
inactive: sotrastaurin 0.037 | rucaparib -0.056 | encorafenib 0.051

C1D (UniProt Q13901)
inactive: sotrastaurin 0.005 | Tubastatin A 0.079 | [2] 0.001 | defactinib 0.042 | rucaparib -0.005 | encorafenib 0.009 | [3] 0.091

CAPNS1 (UniProt U3KPR7)
inactive: [2] -0.116

BTBD10 isoform 2 (UniProt Q9BSF8)
inactive: saracatinib -0.191 | [1] -0.014

C5 (UniProt P01031)
inactive: sotrastaurin 0.333 | alvocidib -0.005 | Tubastatin A -0.013 | defactinib 0.113 | [3] 0.132

CA1 (UniProt E5RIF9)
inactive: saracatinib 0.272 | Tubastatin A -0.178 | defactinib -0.09 | [1] 0.093 | [3] -0.129

C8orf37 (UniProt Q96NL8)
inactive: Tubastatin A 0.005 | [2] 0.039

C8B (UniProt P07358)
inactive: saracatinib 0.258 | [1] -0.014

CAMK1 (UniProt Q14012)
inactive: rucaparib 0.017 | encorafenib -0.129

CAPNS2 (UniProt Q96L46)
inactive: rucaparib -0.234 | encorafenib -0.221

CAPN15 (UniProt O75808)
inactive: sotrastaurin -0.025 | [2] 0.069

C4BPA (UniProt P04003)
inactive: sotrastaurin 0.028 | alvocidib -0.446 | Tubastatin A -0.06 | [2] 0.424 | rucaparib -0.187 | encorafenib -0.208

C5orf30 (UniProt Q96GV9)
inactive: Tubastatin A 0.502

C8orf88 (UniProt P0DMB2)
inactive: alvocidib -0.202 | [2] -0.096 | defactinib -0.002 | [3] 0.091

C19orf57 (UniProt Q0VDD7)
inactive: saracatinib -0.002 | alvocidib -0.013 | [2] 0.03 | defactinib 0.092 | [1] 0.115 | [3] -0.002
